Reference: US20180140667A1
These are yes or no findings as the source states them, for the method shown. In cells and extracts the contact can be indirect. Some entries that bind do so weakly or less than the wild type. For some of these results: Tags and fused reporters may be left off the sequences shown.

The chains behind the UniProt entries cited, without tags or fusion partners. Where a name states a change or a piece, a line headed by the entry shows the natural chain unless it says otherwise.
UniProt P19838: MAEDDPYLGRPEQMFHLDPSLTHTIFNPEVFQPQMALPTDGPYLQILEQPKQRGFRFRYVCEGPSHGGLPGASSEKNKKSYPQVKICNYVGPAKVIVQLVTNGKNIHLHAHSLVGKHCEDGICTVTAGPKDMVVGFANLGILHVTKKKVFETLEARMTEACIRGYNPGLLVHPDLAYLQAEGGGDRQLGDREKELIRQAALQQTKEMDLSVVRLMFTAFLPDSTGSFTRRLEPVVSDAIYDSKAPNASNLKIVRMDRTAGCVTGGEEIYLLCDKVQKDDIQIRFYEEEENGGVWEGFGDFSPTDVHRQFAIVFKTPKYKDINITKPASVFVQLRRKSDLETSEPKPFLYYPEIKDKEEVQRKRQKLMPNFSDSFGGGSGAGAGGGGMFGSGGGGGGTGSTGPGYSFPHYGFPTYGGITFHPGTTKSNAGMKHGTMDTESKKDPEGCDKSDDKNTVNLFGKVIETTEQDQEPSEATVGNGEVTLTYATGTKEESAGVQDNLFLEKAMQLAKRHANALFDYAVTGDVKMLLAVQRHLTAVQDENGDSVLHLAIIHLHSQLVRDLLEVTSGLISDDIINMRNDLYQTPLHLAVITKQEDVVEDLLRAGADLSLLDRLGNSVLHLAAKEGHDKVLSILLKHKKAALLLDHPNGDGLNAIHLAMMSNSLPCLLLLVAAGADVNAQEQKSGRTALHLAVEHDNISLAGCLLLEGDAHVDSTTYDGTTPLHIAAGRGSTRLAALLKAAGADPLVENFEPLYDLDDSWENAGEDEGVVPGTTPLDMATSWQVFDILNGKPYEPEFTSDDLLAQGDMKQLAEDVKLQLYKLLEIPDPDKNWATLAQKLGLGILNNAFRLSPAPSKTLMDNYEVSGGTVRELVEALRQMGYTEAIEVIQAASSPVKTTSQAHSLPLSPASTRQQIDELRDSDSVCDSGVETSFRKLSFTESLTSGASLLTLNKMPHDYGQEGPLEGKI

Columns and labels:
FLAG-p105 (human) [1] = biological target: FLAG-p105 (human) (UniProt P19838); test: co-immunoprecipitation: anti-FLAG IP of FLAG-p105 from HEK293 lysate, anti-KPC1 blot (FIG. 2B)
FLAG-p105 (human) [2] = biological target: FLAG-p105 (human) (UniProt P19838); test: co-immunoprecipitation: anti-FLAG IP from HeLa cells treated or not with TNFα (50 ng/ml, 30 min), anti-KPC1 blot (FIG. 8E legend)
[3] = biological target: FLAG-p105K594,625,630,637,639,640,684,740R (human) (UniProt P19838); test: co-immunoprecipitation: anti-FLAG IP from HEK293 cells, anti-KPC1 blot (FIG. 10B)
[4] = biological target: FLAG-p105Δ574-803 (human) (UniProt P19838); test: co-immunoprecipitation: anti-FLAG IP from HEK293 cells, anti-KPC1 blot (FIG. 3D legend)
[5] = biological target: FLAG-p105Δ574-803 (human) (UniProt P19838); test: co-immunoprecipitation: anti-FLAG IP from HEK293 cells, anti-KPC1 blot (FIG. 3D)
[6] = biological target: endogenous p105 (HeLa cells) (human) (UniProt P19838); test: co-immunoprecipitation from HeLa lysate with anti-p50, anti-KPC1 blot (FIG. 8B)
[7] = biological target: endogenous p105 (HeLa cells) (human) (UniProt P19838); test: co-immunoprecipitation from HeLa lysate with anti-p50, anti-KPC1 blot (FIG. 8B legend)

Measured: binding

B1: Myc-KPC1 (enzyme, not shown: small tags and cut ends)
chain: MASKGAGMSFSRKSYRLTSDAEKSRVTGIVQEKLLNDYLNRIFSSSEHAPPAATSRKPLNFQNLPEHLDQLLQVDNEEEESQGQVEGRLGPSTVVLDHTGGFEGLLLVDDDLLGVIGHSNFGTIRSTTCVYKGKWLYEVLISSQGLMQIGWCTISCRFNQEEGVGDTHNSYAYDGNRVRKWNVTTTNYGKAWAAGDIVSCLIDLDDGTLSFCLNGVSLGTAFENLSRGLGMAYFPAISLSFKESVAFNFGSRPLRYPVAGYRPLQDPPSADLVRAQRLLGCFRAVLSVELDPVEGRLLDKESSKWRLRGQPTVLLTLAHIFHHFAPLLRKVYLVEAVLMSFLLGIVEKGTPTQAQSVVHQVLDLLWLFMEDYEVQDCLKQLMMSLLRLYRFSPIVPDLGLQIHYLRLTIAILRHEKSRKFLLSNVLFDVLRSVVFFYIKSPLRVEEAGLQELIPTTWWPHCSSREGKESTEMKEETAEERLRRRAYERGCQRLRKRIEVVEELQVQILKLLLDNKDDNGGEASRYIFLTKFRKFLQENASGRGNMPMLCPPEYMVCFLHRLISALRYYWDEYKASNPHASFSEEAYIPPQVFYNGKVDYFDLQRLGGLLSHLRKTLKDDLASKANIVIDPLELQSTAMDDLDEDEEPAPAMAQRPMQALAVGGPLPLPRPGWLSSPTLGRANRFLSTAAVSLMTPRRPLSTSEKVKVRTLSVEQRTREDIEGSHWNEGLLLGRPPEEPEQPLTENSLLEVLDGAVMMYNLSVHQQLGKMVGVSDDVNEYAMALRDTEDKLRRCPKRRKDILAELTKSQKVFSEKLDHLSRRLAWVHATVYSQEKMLDIYWLLRVCLRTIEHGDRTGSLFAFMPEFYLSVAINSYSALKNYFGPVHSMEELPGYEETLTRLAAILAKHFADARIVGTDIRDSLMQALASYVCYPHSLRAVERIPEEQRIAMVRNLLAPYEQRPWAQTNWILVRLWRGCGFGYRYTRLPHLLKTKLEDANLPSLQKPCPSTLLQQHMADLLQQGPDVAPSFLNSVLNQLNWAFSEFIGMIQEIQQAAERLERNFVDSRQLKVCATCFDLSVSLLRVLEMTITLVPEIFLDWTRPTSEMLLRRLAQLLNQVLNRVTAERNLFDRVVTLRLPGLESVDHYPILVAVTGILVQLLVRGPASEREQATSVLLADPCFQLRSICYLLGQPEPPAPGTALPAPDRKRFSLQSYADYISADELAQVEQMLAHLTSASAQAAAASLPTSEEDLCPICYAHPISAVFQPCGHKSCKACINQHLMNNKDCFFCKTTIVSVEDWEKGANTSTTSSAA
not listed: [6] | [7]
binds: all other assays above

B2: endogenous KPC1 (HeLa cells) (enzyme)
chain: ASKGAGMSFSRKSYRLTSDAEKSRVTGIVQEKLLNDYLNRIFSSSEHAPPAATSRKPLNFQNLPEHLDQLLQVDNEEEESQGQVEGRLGPSTVVLDHTGGFEGLLLVDDDLLGVIGHSNFGTIRSTTCVYKGKWLYEVLISSQGLMQIGWCTISCRFNQEEGVGDTHNSYAYDGNRVRKWNVTTTNYGKAWAAGDIVSCLIDLDDGTLSFCLNGVSLGTAFENLSRGLGMAYFPAISLSFKESVAFNFGSRPLRYPVAGYRPLQDPPSADLVRAQRLLGCFRAVLSVELDPVEGRLLDKESSKWRLRGQPTVLLTLAHIFHHFAPLLRKVYLVEAVLMSFLLGIVEKGTPTQAQSVVHQVLDLLWLFMEDYEVQDCLKQLMMSLLRLYRFSPIVPDLGLQIHYLRLTIAILRHEKSRKFLLSNVLFDVLRSVVFFYIKSPLRVEEAGLQELIPTTWWPHCSSREGKESTEMKEETAEERLRRRAYERGCQRLRKRIEVVEELQVQILKLLLDNKDDNGGEASRYIFLTKFRKFLQENASGRGNMPMLCPPEYMVCFLHRLISALRYYWDEYKASNPHASFSEEAYIPPQVFYNGKVDYFDLQRLGGLLSHLRKTLKDDLASKANIVIDPLELQSTAMDDLDEDEEPAPAMAQRPMQALAVGGPLPLPRPGWLSSPTLGRANRFLSTAAVSLMTPRRPLSTSEKVKVRTLSVEQRTREDIEGSHWNEGLLLGRPPEEPEQPLTENSLLEVLDGAVMMYNLSVHQQLGKMVGVSDDVNEYAMALRDTEDKLRRCPKRRKDILAELTKSQKVFSEKLDHLSRRLAWVHATVYSQEKMLDIYWLLRVCLRTIEHGDRTGSLFAFMPEFYLSVAINSYSALKNYFGPVHSMEELPGYEETLTRLAAILAKHFADARIVGTDIRDSLMQALASYVCYPHSLRAVERIPEEQRIAMVRNLLAPYEQRPWAQTNWILVRLWRGCGFGYRYTRLPHLLKTKLEDANLPSLQKPCPSTLLQQHMADLLQQGPDVAPSFLNSVLNQLNWAFSEFIGMIQEIQQAAERLERNFVDSRQLKVCATCFDLSVSLLRVLEMTITLVPEIFLDWTRPTSEMLLRRLAQLLNQVLNRVTAERNLFDRVVTLRLPGLESVDHYPILVAVTGILVQLLVRGPASEREQATSVLLADPCFQLRSICYLLGQPEPPAPGTALPAPDRKRFSLQSYADYISADELAQVEQMLAHLTSASAQAAAASLPTSEEDLCPICYAHPISAVFQPCGHKSCKACINQHLMNNKDCFFCKTTIVSVEDWEKGANTSTTSSAA
binds: [6] | [7]
